Test results published in PMC12469358, “Synthesis of novel phenoxyacetohydrazide compounds and evaluation therapeutic potential exhibit as anti-inflammatory and anti-angiogenic” (PLOS One, 2025).

Tested on: human red blood cell (HRBC) membrane
Test: Human red blood cell (HRBC) membrane stabilization assay
Assay type: cell-based
Conditions: n = 6
Protocol: The human red blood cell (HRBC) membrane stabilization method was employed to evaluate the anti-inflammatory activity of the compounds, as previously described. For test the in vitro anti-inflammatory activity of synthesized compounds (6e-h), blood samples were collected from healthy volunteers who had not taken NSAIDs for 14 days. The blood was mixed with an equal volume of sterilized Alsever’s solution, centrifuged at 3000 rpm, and the packed cells were washed with isotonic saline (0.9% w/v NaCl). A 10% cell suspension was then prepared using isotonic saline. The test compounds were dissolved in DMSO to prepare solutions at concentrations of 50, 100, 150, 200, and 250 μg/ml. For each concentration, a mixture containing 1 ml of phosphate buffer, 2 ml of hypotonic saline, and 0.5 ml of the HRBC suspension was prepared. The samples were incubated at 37°C for 30 minutes and centrifuged at 3000 rpm for 20 minutes. The hemoglobin content in the supernatant was determined spectrophotometrically at 560 nm. Indomethacin at the same concentrations (50–250 μg/ml) was used as the reference standard, and a control sample was prepared without the test compounds. The percentage hemolysis was calculated by considering the hemolysis in the control group as 100%. The percentage of HRBC membrane stabilization or protection was determined using the following formula:
percent protection=100−((OD of drug treated sample/OD of control) ×100).

Structure (SMILES)	Absorbance at 560nm (50 µg)	Absorbance at 560nm (100 µg)	Absorbance at 560nm (150 µg)	Absorbance at 560nm (200 µg)	Absorbance at 560nm (250 µg)
O=C(CCCOc1ccc(F)cc1)NNC(=O)C1CN(Cc2ccccc2)CCO1 (stereo not shown) [6e, 4-Benzyl-N’-(4-(4-fluorophenoxy)butanoyl)morpholine-2-carbohydrazide]	0.702 ± 0.001	0.634 ± 0.002	0.601 ± 0.007	0.449 ± 0.004	0.389 ± 0.002
COc1ccc2c(c1)c(CC(=O)O)c(C)n2C(=O)c1ccc(Cl)cc1 [Indomethacin, reference compound]	0.601 ± 0.003	0.501 ± 0.001	0.398 ± 0.001	0.298 ± 0.002	0.188 ± 0.008
